The target of assay [1] is T1, TGF-βRI (human (endogenous in hTERT-HSC)), P36897.
T1 chain: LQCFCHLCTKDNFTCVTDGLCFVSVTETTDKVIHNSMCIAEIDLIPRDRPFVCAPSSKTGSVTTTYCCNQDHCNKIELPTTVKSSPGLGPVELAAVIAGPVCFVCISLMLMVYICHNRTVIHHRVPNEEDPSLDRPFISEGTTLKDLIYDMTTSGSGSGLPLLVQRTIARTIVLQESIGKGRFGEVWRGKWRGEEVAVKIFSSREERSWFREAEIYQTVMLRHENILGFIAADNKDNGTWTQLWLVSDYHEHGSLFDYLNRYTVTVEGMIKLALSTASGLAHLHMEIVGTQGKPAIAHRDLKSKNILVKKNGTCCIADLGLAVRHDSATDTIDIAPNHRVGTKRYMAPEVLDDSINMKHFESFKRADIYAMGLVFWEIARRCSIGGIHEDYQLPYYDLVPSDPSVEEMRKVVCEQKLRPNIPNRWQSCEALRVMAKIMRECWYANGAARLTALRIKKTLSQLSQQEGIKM
Briefly: proximity ligation; human HSCs, serum-starved 24 h, with or without 10 ng/mL TGF-β1 and/or 500 ng/mL NP-011 for 30 min; Duolink In Situ Red Starter Kit. Particulars: remark: other sources report otherwise.

Assay [2] addresses T1, TGF-βRI (human (endogenous in …)). Briefly: co-IP; 400 μg protein of HSC lysate (RIPA buffer), 1 μg TGFβRI antibody, protein A/G sepharose beads, 4 °C, 12 h; cells with TGF-β1 (10 ng/mL) and/or NP-011 (500 ng/mL); blot for integrin β3/β5. Particulars: remark: other sources report otherwise.

These are yes or no findings as the source states them, for the method shown. Binding seen in cells or lysates may run through a third protein. Some entries that bind do so weakly or less than the wild type.

B1: integrin β3 (endogenous in human HSCs), P05106 27-788 (receptor)
chain: GPNICTTRGVSSCQQCLAVSPMCAWCSDEALPLGSPRCDLKENLLKDNCAPESIEFPVSEARVLEDRPLSDKGSGDSSQVTQVSPQRIALRLRPDDSKNFSIQVRQVEDYPVDIYYLMDLSYSMKDDLWSIQNLGTKLATQMRKLTSNLRIGFGAFVDKPVSPYMYISPPEALENPCYDMKTTCLPMFGYKHVLTLTDQVTRFNEEVKKQSVSRNRDAPEGGFDAIMQATVCDEKIGWRNDASHLLVFTTDAKTHIALDGRLAGIVQPNDGQCHVGSDNHYSASTTMDYPSLGLMTEKLSQKNINLIFAVTENVVNLYQNYSELIPGTTVGVLSMDSSNVLQLIVDAYGKIRSKVELEVRDLPEELSLSFNATCLNNEVIPGLKSCMGLKIGDTVSFSIEAKVRGCPQEKEKSFTIKPVGFKDSLIVQVTFDCDCACQAQAEPNSHRCNNGNGTFECGVCRCGPGWLGSQCECSEEDYRPSQQDECSPREGQPVCSQRGECLCGQCVCHSSDFGKITGKYCECDDFSCVRYKGEMCSGHGQCSCGDCLCDSDWTGYYCNCTTRTDTCMSSNGLLCSGRGKCECGSCVCIQPGSYGDTCEKCPTCPDACTFKKECVECKKFDRGALHDENTCNRYCRDEIESVKELKDTGKDAVNCTYKNEDDCVVRFQYYEDSSGKSILYVVEEPECPKGPDILVVLLSVMGAILLIGLAALLIWKLLITIHDRKEFAKFEEERARAKWDTANNPLYKEATSTFTNITYRGT
In the case of B1, the binding entry in assay [1] and in assay [2] was “binds” each time.
